Data source: PubChem BioAssay AID1259308 (NCATS, 2017)
Assay: 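Knock-downs that increase output of a recombinant reporter protein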 (primary screen). System: human HEK293 embryonic kidney cells stably expressing firefly luciferase (HEK-CMV-Luc2-Hygro). Knock-down reagent: single siRNA against human genes, 0.8 pmol siRNA per well. Time to read-out: 72 h. Read-out: 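Reporter luminescence and viable-cell signal on separate replicate plates, given as percent of non-targeting control and median/MAD z-scores, plus per-cell luciferase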. Direction: total luciferase, z-score and total luciferase, % of control: higher = more reporter protein produced; luciferase per cell, z-score: higher = more reporter output per viable cell; viable cells, % of control: higher = more viable cells. Call rule: 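Active when the median/MAD z-score for overall luciferase is greater than 3; a gene was taken forward for validation with new siRNAs if at least two of its three siRNAs passed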. Calls: active = raised luciferase; inactive = no rise.
This is a random part of about 59,000 reagents tested. Over the whole deposit, about 1,510 (2.6%) were called active. 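Calls use total luciferase alone and ignore viability, so some active siRNAs may act by altering cell number.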 Unmarked entries are inactive. Reagents against one gene are numbered here.

no.	gene knocked down	reagent no.	total luciferase, z-score	total luciferase, % of control	luciferase per cell, z-score	viable cells, % of control
1	PRPS2 (GeneID 5634)	1	0.141	84.7	0.612	80.6
2	PRPS2 (GeneID 5634)	2	-0.0554	80.8	-0.526	104
3	PRPS2 (GeneID 5634)	3	-0.606	69.8	-1.18	107
4	CLGN (GeneID 1047)	1	-0.246	77	-0.532	99
5	CLGN (GeneID 1047)	2	0.711	96	0.464	95
6	CLGN (GeneID 1047)	3	-0.89	64.2	0.0776	70.3
7	UQCR11 (GeneID 10975)	1	-0.722	67.5	1.12	56.2
8	UQCR11 (GeneID 10975)	2	0.103	83.9	-0.192	98.7
9	UQCR11 (GeneID 10975)	3	1.47	111	1.85	76.4
10	CIAO2B (GeneID 51647)	1	0.3	87.8	-0.146	102
11	CIAO2B (GeneID 51647)	2	0.362	89.1	-0.169	104
12	CIAO2B (GeneID 51647)	3	-0.683	68.3	-0.893	96.6
13	ZFP64 (GeneID 55734)	1	-0.141	79.1	2.33	47.9
14	ZFP64 (GeneID 55734)	2	-0.542	71.1	-0.527	91.3
15	ZFP64 (GeneID 55734)	3	-1.02	61.5	-0.0329	69.3
16	PRELP (GeneID 5549)	1	0.364	89.1	0.0359	98.7
17	PRELP (GeneID 5549)	2	-0.361	74.7	-0.503	95.3
18	PRELP (GeneID 5549)	3	-0.143	79	-0.112	91

Continued; the last 3 above are carried over.
no.	gene knocked down	reagent no.	total luciferase, z-score	total luciferase, % of control	luciferase per cell, z-score	viable cells, % of control
16	PRELP (GeneID 5549)	1	0.364	89.1	0.0359	98.7
17	PRELP (GeneID 5549)	2	-0.361	74.7	-0.503	95.3
18	PRELP (GeneID 5549)	3	-0.143	79	-0.112	91
19	SCUBE3 (GeneID 222663)	1	0.556	92.9	0.81	83.9
20	SCUBE3 (GeneID 222663)	2	0.149	84.9	-0.0276	95.5
21	SCUBE3 (GeneID 222663)	3	0.588	93.6	1.25	75.3
22	LRRN2 (GeneID 10446)	1	-0.251	76.9	0.0405	85
23	LRRN2 (GeneID 10446)	2	0.215	86.2	0.256	90
24	LRRN2 (GeneID 10446)	3	-0.754	66.9	-0.817	92.7
25	HTR6 (GeneID 3362)	1	0.68	95.4	1.77	66.9
26	HTR6 (GeneID 3362)	2	1.57	113	2.69	62.3
27	HTR6 (GeneID 3362)	3	0.267	87.2	-0.971	126
28	YJU2B (GeneID 81576)	1	-0.56	70.8	-1.32	112
29	YJU2B (GeneID 81576)	2	0.654	94.9	0.804	85.8
30	YJU2B (GeneID 81576)	3	0.0427	82.7	-0.297	100
31	ZNF598 (GeneID 90850)	1	1.79	118	1.83	81.1
32	ZNF598 (GeneID 90850)	2	0.136	84.6	-0.514	108
33	ZNF598 (GeneID 90850)	3	0.255	87	0.421	87
34	FOLR1 (GeneID 2348)	1	-0.45	72.9	0.136	78.6
35	FOLR1 (GeneID 2348)	2	-2.28	36.5	-2.2	72.7
36	FOLR1 (GeneID 2348)	3	-1.92	43.8	-0.572	56.9
37	PRKCH (GeneID 5583)	1	0.0268	82.4	0.755	75.5
38	PRKCH (GeneID 5583)	2	-0.326	75.4	-0.49	95.8
39	PRKCH (GeneID 5583)	3	1.18	105	0.91	92.6
